The supplement of paper PMC11732987, “Enantioselective OTUD7B fragment discovery through chemoproteomics screening and high-throughput optimisation” (Communications Chemistry, 2025)
This is one part of the list. The data scatter; read single values as rough.

By UniProt entry, the sequences of proteins in these tests, tags left out. Where a name states a change or a piece, a line headed by the entry shows the natural chain unless it says otherwise.
UniProt Q9BQ90: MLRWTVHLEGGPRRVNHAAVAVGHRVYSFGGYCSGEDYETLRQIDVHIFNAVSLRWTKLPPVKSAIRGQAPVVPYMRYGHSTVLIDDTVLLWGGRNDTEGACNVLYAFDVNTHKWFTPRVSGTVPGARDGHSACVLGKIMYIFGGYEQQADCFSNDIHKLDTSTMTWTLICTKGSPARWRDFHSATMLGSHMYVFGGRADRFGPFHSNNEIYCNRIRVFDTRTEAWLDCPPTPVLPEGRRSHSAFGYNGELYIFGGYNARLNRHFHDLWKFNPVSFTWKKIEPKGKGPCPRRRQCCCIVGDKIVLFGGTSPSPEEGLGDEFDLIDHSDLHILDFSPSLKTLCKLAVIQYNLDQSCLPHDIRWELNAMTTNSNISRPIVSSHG
UniProt Q92615, whole entry, looked up: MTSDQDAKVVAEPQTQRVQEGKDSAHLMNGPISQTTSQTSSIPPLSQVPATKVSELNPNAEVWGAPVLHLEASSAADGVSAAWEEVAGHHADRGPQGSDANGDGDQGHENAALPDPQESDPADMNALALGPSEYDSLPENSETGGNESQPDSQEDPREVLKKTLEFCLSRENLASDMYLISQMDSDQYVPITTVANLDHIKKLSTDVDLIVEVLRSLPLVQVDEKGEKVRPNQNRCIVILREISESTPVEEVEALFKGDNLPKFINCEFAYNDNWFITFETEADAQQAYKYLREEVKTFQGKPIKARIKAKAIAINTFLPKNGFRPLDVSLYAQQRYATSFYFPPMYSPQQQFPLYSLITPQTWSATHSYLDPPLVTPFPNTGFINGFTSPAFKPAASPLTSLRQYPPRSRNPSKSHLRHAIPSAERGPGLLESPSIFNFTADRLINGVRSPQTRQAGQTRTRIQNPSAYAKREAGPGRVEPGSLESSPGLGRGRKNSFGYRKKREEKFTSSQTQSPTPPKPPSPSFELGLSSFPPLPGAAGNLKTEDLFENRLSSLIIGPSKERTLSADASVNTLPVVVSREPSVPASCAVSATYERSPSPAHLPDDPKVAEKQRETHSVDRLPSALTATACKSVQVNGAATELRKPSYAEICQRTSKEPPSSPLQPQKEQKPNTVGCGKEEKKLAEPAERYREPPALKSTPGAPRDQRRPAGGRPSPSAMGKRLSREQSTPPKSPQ
UniProt P49916: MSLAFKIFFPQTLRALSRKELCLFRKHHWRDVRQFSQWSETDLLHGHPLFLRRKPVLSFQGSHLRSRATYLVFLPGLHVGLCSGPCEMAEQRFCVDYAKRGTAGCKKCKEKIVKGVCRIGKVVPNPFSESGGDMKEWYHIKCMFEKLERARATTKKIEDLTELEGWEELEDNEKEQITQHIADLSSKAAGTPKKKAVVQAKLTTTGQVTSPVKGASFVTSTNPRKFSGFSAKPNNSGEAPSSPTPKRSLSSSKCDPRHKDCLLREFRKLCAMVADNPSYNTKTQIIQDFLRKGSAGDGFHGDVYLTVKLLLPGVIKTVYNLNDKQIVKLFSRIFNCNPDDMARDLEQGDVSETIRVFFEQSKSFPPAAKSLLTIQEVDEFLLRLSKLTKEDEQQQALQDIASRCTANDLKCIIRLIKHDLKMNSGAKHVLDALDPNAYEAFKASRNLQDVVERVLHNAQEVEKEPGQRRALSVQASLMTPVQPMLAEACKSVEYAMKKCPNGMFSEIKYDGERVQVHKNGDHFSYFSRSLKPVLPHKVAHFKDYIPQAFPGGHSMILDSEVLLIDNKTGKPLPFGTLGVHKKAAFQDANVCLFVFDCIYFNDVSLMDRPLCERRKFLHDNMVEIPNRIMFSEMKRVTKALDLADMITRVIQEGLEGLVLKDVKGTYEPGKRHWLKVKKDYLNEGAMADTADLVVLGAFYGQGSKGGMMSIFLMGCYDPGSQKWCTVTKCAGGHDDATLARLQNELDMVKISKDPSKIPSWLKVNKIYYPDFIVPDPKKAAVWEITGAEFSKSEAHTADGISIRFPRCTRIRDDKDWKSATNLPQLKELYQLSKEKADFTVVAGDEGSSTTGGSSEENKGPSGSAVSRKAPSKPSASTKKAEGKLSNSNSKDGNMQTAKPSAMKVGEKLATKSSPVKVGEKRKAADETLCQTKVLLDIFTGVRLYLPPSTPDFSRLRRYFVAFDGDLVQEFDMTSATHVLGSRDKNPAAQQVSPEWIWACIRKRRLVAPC
UniProt Q96EM0: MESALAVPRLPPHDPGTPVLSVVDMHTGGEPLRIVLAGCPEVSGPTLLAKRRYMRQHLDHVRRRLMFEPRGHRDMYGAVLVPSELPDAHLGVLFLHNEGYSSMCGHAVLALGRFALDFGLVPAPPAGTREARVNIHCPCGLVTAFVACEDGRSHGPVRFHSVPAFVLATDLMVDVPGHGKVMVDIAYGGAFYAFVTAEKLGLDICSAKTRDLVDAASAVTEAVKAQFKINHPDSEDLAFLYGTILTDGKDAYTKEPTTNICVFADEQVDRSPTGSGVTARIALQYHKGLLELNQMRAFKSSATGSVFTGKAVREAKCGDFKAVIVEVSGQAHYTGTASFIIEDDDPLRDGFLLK
UniProt Q96PV6: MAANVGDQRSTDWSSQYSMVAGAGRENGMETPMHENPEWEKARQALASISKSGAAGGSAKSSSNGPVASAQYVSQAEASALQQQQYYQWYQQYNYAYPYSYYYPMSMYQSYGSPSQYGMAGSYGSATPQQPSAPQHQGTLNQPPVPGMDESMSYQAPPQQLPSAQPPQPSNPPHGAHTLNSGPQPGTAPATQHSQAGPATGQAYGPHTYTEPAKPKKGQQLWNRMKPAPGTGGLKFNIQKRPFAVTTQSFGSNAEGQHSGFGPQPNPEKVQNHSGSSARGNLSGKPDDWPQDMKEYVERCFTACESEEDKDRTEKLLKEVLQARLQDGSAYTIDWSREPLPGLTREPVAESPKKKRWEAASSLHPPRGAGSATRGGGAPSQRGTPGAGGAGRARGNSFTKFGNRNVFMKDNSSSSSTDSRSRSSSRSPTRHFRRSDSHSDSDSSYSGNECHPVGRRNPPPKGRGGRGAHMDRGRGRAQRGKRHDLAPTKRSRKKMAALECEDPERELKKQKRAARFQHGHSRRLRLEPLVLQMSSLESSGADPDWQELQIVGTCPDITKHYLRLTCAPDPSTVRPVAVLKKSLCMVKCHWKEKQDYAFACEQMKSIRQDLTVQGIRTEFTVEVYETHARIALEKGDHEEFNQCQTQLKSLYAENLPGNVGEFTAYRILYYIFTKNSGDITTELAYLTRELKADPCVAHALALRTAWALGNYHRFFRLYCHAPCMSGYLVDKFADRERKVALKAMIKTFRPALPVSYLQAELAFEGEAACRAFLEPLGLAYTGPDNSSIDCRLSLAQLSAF
UniProt Q8NG31: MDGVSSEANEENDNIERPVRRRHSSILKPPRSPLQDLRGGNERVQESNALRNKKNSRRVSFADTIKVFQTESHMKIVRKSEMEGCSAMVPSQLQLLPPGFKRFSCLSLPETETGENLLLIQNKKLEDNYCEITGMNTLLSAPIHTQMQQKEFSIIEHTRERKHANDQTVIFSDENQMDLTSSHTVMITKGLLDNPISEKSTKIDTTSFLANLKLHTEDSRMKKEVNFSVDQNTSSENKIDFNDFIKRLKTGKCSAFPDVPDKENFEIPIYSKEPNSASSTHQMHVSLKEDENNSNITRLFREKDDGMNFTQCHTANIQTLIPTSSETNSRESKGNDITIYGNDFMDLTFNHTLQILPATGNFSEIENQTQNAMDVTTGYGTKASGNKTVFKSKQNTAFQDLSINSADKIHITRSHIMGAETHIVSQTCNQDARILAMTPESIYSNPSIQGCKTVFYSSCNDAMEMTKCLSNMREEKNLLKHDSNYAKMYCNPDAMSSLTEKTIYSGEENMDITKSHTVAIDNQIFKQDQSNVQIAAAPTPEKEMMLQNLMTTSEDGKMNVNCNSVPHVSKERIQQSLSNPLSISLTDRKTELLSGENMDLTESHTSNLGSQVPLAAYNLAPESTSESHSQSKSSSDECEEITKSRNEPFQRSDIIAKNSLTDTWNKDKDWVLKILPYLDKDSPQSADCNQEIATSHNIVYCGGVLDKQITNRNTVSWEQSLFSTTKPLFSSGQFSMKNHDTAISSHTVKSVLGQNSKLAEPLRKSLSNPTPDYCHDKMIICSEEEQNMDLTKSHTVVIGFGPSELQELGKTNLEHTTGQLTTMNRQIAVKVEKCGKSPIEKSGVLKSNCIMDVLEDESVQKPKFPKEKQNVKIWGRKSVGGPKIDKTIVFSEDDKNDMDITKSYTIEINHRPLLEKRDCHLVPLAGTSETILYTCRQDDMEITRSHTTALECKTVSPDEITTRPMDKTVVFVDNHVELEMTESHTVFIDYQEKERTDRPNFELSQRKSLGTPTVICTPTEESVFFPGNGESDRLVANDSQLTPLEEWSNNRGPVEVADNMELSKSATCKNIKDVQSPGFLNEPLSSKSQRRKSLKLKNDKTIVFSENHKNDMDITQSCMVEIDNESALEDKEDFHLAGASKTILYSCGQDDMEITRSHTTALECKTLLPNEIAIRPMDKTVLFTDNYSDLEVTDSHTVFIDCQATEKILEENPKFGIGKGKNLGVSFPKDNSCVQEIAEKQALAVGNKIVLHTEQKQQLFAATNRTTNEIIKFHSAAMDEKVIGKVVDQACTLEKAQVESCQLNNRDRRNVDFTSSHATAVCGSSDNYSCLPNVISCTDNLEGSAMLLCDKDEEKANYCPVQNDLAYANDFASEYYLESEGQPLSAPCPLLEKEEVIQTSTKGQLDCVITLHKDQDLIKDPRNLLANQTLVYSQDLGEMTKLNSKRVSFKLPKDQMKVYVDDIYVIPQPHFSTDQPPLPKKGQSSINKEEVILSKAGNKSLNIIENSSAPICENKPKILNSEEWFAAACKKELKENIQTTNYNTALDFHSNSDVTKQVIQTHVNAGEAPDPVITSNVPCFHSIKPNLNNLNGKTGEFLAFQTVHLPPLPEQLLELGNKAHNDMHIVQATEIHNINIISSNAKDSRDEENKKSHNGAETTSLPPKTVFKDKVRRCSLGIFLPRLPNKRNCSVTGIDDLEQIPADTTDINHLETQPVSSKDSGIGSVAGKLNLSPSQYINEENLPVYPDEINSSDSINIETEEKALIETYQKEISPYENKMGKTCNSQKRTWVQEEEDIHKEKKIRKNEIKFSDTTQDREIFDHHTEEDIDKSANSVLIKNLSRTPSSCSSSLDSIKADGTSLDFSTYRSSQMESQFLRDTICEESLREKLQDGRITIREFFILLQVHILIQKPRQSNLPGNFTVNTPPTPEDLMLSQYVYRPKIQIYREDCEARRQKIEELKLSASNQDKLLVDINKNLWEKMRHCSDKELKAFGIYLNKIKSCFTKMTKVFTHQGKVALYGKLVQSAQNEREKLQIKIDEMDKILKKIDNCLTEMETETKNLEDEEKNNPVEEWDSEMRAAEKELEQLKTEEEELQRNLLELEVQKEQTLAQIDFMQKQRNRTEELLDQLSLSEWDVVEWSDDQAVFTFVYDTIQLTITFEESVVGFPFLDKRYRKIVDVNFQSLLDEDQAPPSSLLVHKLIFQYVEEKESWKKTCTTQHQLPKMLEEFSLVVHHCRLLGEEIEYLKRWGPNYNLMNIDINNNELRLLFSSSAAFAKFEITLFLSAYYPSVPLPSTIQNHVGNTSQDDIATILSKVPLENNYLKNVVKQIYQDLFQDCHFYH
UniProt P33176: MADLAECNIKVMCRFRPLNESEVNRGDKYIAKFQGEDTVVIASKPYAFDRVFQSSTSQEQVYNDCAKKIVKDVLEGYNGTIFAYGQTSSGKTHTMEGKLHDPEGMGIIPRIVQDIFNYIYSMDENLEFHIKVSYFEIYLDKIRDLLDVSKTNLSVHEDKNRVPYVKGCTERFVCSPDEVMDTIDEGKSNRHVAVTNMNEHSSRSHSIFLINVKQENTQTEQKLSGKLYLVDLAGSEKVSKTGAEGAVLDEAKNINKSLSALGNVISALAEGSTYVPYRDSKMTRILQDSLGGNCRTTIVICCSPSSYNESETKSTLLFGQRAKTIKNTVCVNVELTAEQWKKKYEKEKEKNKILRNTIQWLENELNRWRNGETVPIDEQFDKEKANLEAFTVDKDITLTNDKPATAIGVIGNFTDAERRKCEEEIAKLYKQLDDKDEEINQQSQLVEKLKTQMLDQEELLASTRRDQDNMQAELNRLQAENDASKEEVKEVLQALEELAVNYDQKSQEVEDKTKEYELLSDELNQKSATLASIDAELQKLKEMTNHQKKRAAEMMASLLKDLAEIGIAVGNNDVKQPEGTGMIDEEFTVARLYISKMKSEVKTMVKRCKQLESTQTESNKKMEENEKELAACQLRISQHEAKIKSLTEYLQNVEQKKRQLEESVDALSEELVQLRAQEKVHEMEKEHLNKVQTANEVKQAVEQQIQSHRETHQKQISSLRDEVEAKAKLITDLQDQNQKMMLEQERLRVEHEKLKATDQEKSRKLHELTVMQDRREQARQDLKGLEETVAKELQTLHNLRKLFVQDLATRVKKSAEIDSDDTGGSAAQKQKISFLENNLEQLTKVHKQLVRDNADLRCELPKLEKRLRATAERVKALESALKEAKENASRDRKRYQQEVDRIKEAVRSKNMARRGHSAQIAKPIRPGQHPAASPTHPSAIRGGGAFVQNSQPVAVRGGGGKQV

compound: ClCC(=O)N[C@H]1CCCc2ccccc12; experiment: log2 mean competition ratio of IA-DTB cysteine labelling (DMSO/compound) (log2 ratio); higher = stronger cysteine engagement by compound; conditions: 50 µM; treatment time: 4 h; cell line lysate: HEK293T
Protocol: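 IA-DTB competitive cysteine chemoproteomics in HEK293T RIPA lysate. Lysates were treated with compound 29 or 30 at 50 or 200 µM for 4 h, then IA-DTB (500 µM, 1 h), trypsin-digested, NeutrAvidin-enriched and analysed by diaPASEF. Competition ratio = intensity DMSO / intensity compound (n=4 treated, n=64 DMSO); binding: mean log2 CR ≥ 1 and p ≤ 0.05 plus QC filters. Target is the cysteine site.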

Row | Target | log2 mean competition ratio
1 | KLHDC3 C213 (UniProt Q9BQ90) | -0.269
2 | KNTC1 C911 (UniProt P50748) | -0.358
3 | LARP4B C654 (UniProt Q92615) | 0.172
4 | LIG3 C270 (UniProt P49916) | 0.168
5 | KMT2D C58 (UniProt O14686) | -0.0987
6 | L3HYPDH C205 (UniProt Q96EM0) | -0.274
7 | LENG8 C643 (UniProt Q96PV6) | -0.304
8 | LPP C364 (UniProt Q93052) | 0.254
9 | LOC100421372 C227 | 0.416
10 | L3MBTL2 C531 (UniProt Q969R5) | -0.0487
11 | KNL1 C1291 (UniProt Q8NG31) | -0.205
12 | LONP1 C682 (UniProt P36776) | -0.065
13 | KMT2C C2873 (UniProt Q8NEZ4) | -0.455
14 | KIF5B C421 (UniProt P33176) | 0.0306
15 | LRBA C2675 | -0.131
16 | KIF7 C1283 | 0.302
17 | LMO7 C98 (UniProt Q8WWI1) | 0.0571
18 | LRP1 C2561 (UniProt Q07954) | 0.0638
19 | KNL1 C638 (UniProt Q8NG31) | -0.308
20 | LRBA C1921 | -0.421

same assay, conditions: 200 µM; treatment time: 4 h; cell line lysate: HEK293T

Row | Target | log2 mean competition ratio
21 | KLHDC3 C213 (UniProt Q9BQ90) | 0.0503
22 | KNTC1 C911 (UniProt P50748) | 0.147
23 | LARP4B C654 (UniProt Q92615) | 0.155
24 | LIG3 C270 (UniProt P49916) | 0.0984
25 | KMT2D C58 (UniProt O14686) | 0.0862
26 | L3HYPDH C205 (UniProt Q96EM0) | -0.0722
27 | LENG8 C643 (UniProt Q96PV6) | -0.149
28 | LPP C364 (UniProt Q93052) | -0.194
29 | LOC100421372 C227 | -0.0521
30 | L3MBTL2 C531 (UniProt Q969R5) | -0.0124
31 | KNL1 C1291 (UniProt Q8NG31) | 0.16
32 | LONP1 C682 (UniProt P36776) | 0.0472
33 | KMT2C C2873 (UniProt Q8NEZ4) | 0.42
34 | KIF5B C421 (UniProt P33176) | -0.164
35 | LRBA C2675 | -0.386
36 | KIF7 C1283 | -0.236
37 | LMO7 C98 (UniProt Q8WWI1) | -0.173
38 | LRP1 C2561 (UniProt Q07954) | 0.629
39 | KNL1 C638 (UniProt Q8NG31) | 0.17
40 | LRBA C1921 | 0.0504
